# From the supplement of paper PMC6411743
# ± gives the standard deviation of the averaged measurements. This is a selection; strong and weak results do not stand in their true shares.
# Columns and labels:
# Experiment in all cases: NP40-soluble protein abundance relative to vehicle (solubility fold change) (ratio); higher = more soluble protein in presence of AMP-PNP
# [1] = target: T1, UniProt Q9BUA3
# T1 sequence (whole entry): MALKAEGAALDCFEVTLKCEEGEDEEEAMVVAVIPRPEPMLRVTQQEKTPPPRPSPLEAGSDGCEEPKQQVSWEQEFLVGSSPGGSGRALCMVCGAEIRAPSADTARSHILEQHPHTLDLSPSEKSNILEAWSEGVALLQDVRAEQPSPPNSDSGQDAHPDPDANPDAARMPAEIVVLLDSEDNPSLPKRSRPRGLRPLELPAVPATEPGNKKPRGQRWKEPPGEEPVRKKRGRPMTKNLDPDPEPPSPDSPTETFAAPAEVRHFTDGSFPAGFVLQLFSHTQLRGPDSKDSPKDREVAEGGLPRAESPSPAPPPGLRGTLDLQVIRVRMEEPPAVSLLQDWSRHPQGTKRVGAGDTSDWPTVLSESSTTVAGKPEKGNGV
# In short: (§1)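 Values are fold changes against the detergent-processed vehicle, based on vsn-normalised intensities. Jurkat crude lysate was treated at eight concentrations from 0.1 to 10 mM (10 min at room temperature, then 3 min at 37 °C), solubilised with 0.8% NP40 and benzonase, ultracentrifuged and analysed by TMT-labelled LC-MS/MS over three independent experiments.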
# [2] = target: T2, UniProt Q9BUJ2 and related entries
# T2 sequence (whole entry): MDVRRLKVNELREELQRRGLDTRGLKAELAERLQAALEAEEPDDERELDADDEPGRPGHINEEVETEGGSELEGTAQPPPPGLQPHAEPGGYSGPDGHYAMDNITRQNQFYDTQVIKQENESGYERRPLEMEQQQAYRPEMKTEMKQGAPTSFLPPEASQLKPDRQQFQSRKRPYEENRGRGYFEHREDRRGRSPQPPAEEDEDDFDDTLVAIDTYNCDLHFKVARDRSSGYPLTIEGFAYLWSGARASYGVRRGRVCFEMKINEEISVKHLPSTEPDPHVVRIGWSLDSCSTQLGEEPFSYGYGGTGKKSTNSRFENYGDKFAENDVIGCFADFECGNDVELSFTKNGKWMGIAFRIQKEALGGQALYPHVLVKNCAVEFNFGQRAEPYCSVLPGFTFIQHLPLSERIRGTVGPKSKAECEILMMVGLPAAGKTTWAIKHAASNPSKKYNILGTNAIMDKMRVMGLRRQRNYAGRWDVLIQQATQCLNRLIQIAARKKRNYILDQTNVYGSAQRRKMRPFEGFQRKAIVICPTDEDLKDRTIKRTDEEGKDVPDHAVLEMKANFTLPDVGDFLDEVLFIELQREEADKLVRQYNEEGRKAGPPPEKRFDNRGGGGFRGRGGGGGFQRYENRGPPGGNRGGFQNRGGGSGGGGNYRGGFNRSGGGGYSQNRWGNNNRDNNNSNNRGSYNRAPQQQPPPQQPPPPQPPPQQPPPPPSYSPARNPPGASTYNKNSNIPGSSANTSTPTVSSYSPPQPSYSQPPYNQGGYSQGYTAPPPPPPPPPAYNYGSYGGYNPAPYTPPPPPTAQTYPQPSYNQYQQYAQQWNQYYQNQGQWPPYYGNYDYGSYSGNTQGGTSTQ
# In short: as §1
# [3] = target: T3, UniProt Q9BVV7
# T3 sequence (whole entry): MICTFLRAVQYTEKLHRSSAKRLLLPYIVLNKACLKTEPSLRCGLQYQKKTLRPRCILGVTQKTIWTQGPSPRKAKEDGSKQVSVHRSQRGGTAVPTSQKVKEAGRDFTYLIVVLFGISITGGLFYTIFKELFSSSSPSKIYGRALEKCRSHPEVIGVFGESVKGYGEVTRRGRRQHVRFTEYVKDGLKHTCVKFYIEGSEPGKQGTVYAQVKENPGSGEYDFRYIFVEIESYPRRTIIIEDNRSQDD
# In short: as §1
# [4] = target: T4, UniProt Q9BX63 and related entries
# T4 sequence (whole entry): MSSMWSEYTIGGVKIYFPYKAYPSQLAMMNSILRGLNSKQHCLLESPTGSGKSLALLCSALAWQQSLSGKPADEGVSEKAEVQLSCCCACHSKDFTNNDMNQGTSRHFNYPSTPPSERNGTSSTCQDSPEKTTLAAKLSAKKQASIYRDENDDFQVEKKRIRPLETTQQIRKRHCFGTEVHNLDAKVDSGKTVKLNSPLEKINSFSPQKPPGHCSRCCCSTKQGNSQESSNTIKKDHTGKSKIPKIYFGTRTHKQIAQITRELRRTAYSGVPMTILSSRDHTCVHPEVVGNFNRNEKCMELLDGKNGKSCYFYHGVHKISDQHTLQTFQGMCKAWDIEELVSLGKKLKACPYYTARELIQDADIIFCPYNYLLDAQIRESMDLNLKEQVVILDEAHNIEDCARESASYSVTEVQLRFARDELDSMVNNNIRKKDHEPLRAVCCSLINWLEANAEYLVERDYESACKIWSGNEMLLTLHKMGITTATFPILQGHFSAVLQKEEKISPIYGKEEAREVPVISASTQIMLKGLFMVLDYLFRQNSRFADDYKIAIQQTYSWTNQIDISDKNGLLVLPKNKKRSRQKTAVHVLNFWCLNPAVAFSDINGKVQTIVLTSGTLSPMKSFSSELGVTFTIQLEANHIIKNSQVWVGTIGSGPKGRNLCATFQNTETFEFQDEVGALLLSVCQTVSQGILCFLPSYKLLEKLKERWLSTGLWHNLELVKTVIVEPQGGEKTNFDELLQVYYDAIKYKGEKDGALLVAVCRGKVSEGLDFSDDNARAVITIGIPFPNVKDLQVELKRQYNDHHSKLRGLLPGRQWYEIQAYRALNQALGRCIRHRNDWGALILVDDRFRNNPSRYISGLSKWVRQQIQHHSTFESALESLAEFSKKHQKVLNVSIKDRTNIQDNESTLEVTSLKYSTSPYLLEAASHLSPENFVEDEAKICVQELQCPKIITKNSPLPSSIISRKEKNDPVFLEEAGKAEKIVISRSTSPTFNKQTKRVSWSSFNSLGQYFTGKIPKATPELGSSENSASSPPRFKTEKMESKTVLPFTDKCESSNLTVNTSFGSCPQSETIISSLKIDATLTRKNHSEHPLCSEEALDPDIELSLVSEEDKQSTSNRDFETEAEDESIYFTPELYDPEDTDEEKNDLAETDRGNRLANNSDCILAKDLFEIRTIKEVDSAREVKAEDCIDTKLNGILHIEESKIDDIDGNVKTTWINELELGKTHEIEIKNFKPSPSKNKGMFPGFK
# In short: as §1
# [5] = target: T5, UniProt Q9BXJ9
# T5 sequence (whole entry): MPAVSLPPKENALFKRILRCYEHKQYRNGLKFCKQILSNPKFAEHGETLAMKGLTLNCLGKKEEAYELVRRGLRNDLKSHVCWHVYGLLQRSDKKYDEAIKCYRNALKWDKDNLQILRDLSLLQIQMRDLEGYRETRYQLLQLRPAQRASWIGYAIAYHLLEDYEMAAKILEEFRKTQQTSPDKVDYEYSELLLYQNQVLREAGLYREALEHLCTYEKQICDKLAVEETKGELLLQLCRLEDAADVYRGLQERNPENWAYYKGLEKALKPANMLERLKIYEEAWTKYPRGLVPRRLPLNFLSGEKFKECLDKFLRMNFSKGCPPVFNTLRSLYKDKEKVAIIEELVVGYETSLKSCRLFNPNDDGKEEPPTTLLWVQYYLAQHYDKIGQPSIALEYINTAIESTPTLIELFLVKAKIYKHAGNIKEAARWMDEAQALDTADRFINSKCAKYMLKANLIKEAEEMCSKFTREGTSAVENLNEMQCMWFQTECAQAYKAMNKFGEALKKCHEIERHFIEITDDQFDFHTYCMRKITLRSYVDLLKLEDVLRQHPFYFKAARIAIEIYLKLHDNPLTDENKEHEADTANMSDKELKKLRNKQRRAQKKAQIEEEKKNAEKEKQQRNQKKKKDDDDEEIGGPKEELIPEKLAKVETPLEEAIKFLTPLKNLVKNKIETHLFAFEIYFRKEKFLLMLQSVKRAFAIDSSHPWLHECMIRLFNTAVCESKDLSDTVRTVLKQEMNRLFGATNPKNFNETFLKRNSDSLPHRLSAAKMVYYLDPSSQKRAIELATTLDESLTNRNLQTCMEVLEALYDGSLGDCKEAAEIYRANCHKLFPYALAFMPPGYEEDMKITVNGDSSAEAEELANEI
# In short: as §1
compound,measurement,setting,value
Nc1ncnc2c1ncn2[C@@H]1O[C@H](COP(=O)(O)OP(=O)(O)NP(=O)(O)O)[C@@H](O)[C@H]1O [adenylyl imidodiphosphate],NP40-soluble protein abundance,[1]; concentration: 8mM,0.977 ± 0.046
same,NP40-soluble protein abundance,[1]; concentration: 10mM,0.981 ± 0.043
same,NP40-soluble protein abundance,[2]; concentration: 1mM,1.04 ± 0.021
same,NP40-soluble protein abundance,[2]; concentration: 2mM,1.05 ± 0.03
same,NP40-soluble protein abundance,[2]; concentration: 4mM,1.02 ± 0.019
same,NP40-soluble protein abundance,[2]; concentration: 6mM,1.01 ± 0.042
same,NP40-soluble protein abundance,[2]; concentration: 8mM,1.01 ± 0.043
same,NP40-soluble protein abundance,[2]; concentration: 10mM,0.976 ± 0.071
same,NP40-soluble protein abundance,[3]; concentration: 1mM,1.033 ± 0.0061
same,NP40-soluble protein abundance,[3]; concentration: 2mM,1.03 ± 0.078
same,NP40-soluble protein abundance,[3]; concentration: 4mM,1.04 ± 0.028
same,NP40-soluble protein abundance,[3]; concentration: 6mM,1.02 ± 0.036
same,NP40-soluble protein abundance,[3]; concentration: 8mM,1.0081 ± 9.9e-05
same,NP40-soluble protein abundance,[3]; concentration: 10mM,1.053 ± 0.0067
same,NP40-soluble protein abundance,[4]; concentration: 1mM,0.996 ± 0.038
same,NP40-soluble protein abundance,[4]; concentration: 2mM,1.01 ± 0.039
same,NP40-soluble protein abundance,[4]; concentration: 4mM,0.989 ± 0.019
same,NP40-soluble protein abundance,[4]; concentration: 6mM,0.98 ± 0.017
same,NP40-soluble protein abundance,[4]; concentration: 8mM,0.994 ± 0.046
same,NP40-soluble protein abundance,[4]; concentration: 10mM,0.983 ± 0.024
same,NP40-soluble protein abundance,[5]; concentration: 1mM,1.01 ± 0.033
same,NP40-soluble protein abundance,[5]; concentration: 2mM,0.98 ± 0.085
same,NP40-soluble protein abundance,[5]; concentration: 4mM,1.03 ± 0.051
same,NP40-soluble protein abundance,[5]; concentration: 6mM,1.03 ± 0.042
same,NP40-soluble protein abundance,[5]; concentration: 8mM,1.06 ± 0.043

# Part of the list above, reformatted.
compound	measurement	setting	value
Nc1ncnc2c1ncn2[C@@H]1O[C@H](COP(=O)(O)OP(=O)(O)NP(=O)(O)O)[C@@H](O)[C@H]1O [adenylyl imidodiphosphate]	NP40-soluble protein abundance	[4]; concentration: 10mM	0.983 ± 0.024
same	NP40-soluble protein abundance	[5]; concentration: 1mM	1.01 ± 0.033
